Binding data for one substance are collected here from PMC12591123.

Chains of the proteins cited; added tags and fusions are not shown. Lines headed by an entry give the natural chain unless they say otherwise; changes in a name come on top. Residues count along the entry.
UniProt P98161: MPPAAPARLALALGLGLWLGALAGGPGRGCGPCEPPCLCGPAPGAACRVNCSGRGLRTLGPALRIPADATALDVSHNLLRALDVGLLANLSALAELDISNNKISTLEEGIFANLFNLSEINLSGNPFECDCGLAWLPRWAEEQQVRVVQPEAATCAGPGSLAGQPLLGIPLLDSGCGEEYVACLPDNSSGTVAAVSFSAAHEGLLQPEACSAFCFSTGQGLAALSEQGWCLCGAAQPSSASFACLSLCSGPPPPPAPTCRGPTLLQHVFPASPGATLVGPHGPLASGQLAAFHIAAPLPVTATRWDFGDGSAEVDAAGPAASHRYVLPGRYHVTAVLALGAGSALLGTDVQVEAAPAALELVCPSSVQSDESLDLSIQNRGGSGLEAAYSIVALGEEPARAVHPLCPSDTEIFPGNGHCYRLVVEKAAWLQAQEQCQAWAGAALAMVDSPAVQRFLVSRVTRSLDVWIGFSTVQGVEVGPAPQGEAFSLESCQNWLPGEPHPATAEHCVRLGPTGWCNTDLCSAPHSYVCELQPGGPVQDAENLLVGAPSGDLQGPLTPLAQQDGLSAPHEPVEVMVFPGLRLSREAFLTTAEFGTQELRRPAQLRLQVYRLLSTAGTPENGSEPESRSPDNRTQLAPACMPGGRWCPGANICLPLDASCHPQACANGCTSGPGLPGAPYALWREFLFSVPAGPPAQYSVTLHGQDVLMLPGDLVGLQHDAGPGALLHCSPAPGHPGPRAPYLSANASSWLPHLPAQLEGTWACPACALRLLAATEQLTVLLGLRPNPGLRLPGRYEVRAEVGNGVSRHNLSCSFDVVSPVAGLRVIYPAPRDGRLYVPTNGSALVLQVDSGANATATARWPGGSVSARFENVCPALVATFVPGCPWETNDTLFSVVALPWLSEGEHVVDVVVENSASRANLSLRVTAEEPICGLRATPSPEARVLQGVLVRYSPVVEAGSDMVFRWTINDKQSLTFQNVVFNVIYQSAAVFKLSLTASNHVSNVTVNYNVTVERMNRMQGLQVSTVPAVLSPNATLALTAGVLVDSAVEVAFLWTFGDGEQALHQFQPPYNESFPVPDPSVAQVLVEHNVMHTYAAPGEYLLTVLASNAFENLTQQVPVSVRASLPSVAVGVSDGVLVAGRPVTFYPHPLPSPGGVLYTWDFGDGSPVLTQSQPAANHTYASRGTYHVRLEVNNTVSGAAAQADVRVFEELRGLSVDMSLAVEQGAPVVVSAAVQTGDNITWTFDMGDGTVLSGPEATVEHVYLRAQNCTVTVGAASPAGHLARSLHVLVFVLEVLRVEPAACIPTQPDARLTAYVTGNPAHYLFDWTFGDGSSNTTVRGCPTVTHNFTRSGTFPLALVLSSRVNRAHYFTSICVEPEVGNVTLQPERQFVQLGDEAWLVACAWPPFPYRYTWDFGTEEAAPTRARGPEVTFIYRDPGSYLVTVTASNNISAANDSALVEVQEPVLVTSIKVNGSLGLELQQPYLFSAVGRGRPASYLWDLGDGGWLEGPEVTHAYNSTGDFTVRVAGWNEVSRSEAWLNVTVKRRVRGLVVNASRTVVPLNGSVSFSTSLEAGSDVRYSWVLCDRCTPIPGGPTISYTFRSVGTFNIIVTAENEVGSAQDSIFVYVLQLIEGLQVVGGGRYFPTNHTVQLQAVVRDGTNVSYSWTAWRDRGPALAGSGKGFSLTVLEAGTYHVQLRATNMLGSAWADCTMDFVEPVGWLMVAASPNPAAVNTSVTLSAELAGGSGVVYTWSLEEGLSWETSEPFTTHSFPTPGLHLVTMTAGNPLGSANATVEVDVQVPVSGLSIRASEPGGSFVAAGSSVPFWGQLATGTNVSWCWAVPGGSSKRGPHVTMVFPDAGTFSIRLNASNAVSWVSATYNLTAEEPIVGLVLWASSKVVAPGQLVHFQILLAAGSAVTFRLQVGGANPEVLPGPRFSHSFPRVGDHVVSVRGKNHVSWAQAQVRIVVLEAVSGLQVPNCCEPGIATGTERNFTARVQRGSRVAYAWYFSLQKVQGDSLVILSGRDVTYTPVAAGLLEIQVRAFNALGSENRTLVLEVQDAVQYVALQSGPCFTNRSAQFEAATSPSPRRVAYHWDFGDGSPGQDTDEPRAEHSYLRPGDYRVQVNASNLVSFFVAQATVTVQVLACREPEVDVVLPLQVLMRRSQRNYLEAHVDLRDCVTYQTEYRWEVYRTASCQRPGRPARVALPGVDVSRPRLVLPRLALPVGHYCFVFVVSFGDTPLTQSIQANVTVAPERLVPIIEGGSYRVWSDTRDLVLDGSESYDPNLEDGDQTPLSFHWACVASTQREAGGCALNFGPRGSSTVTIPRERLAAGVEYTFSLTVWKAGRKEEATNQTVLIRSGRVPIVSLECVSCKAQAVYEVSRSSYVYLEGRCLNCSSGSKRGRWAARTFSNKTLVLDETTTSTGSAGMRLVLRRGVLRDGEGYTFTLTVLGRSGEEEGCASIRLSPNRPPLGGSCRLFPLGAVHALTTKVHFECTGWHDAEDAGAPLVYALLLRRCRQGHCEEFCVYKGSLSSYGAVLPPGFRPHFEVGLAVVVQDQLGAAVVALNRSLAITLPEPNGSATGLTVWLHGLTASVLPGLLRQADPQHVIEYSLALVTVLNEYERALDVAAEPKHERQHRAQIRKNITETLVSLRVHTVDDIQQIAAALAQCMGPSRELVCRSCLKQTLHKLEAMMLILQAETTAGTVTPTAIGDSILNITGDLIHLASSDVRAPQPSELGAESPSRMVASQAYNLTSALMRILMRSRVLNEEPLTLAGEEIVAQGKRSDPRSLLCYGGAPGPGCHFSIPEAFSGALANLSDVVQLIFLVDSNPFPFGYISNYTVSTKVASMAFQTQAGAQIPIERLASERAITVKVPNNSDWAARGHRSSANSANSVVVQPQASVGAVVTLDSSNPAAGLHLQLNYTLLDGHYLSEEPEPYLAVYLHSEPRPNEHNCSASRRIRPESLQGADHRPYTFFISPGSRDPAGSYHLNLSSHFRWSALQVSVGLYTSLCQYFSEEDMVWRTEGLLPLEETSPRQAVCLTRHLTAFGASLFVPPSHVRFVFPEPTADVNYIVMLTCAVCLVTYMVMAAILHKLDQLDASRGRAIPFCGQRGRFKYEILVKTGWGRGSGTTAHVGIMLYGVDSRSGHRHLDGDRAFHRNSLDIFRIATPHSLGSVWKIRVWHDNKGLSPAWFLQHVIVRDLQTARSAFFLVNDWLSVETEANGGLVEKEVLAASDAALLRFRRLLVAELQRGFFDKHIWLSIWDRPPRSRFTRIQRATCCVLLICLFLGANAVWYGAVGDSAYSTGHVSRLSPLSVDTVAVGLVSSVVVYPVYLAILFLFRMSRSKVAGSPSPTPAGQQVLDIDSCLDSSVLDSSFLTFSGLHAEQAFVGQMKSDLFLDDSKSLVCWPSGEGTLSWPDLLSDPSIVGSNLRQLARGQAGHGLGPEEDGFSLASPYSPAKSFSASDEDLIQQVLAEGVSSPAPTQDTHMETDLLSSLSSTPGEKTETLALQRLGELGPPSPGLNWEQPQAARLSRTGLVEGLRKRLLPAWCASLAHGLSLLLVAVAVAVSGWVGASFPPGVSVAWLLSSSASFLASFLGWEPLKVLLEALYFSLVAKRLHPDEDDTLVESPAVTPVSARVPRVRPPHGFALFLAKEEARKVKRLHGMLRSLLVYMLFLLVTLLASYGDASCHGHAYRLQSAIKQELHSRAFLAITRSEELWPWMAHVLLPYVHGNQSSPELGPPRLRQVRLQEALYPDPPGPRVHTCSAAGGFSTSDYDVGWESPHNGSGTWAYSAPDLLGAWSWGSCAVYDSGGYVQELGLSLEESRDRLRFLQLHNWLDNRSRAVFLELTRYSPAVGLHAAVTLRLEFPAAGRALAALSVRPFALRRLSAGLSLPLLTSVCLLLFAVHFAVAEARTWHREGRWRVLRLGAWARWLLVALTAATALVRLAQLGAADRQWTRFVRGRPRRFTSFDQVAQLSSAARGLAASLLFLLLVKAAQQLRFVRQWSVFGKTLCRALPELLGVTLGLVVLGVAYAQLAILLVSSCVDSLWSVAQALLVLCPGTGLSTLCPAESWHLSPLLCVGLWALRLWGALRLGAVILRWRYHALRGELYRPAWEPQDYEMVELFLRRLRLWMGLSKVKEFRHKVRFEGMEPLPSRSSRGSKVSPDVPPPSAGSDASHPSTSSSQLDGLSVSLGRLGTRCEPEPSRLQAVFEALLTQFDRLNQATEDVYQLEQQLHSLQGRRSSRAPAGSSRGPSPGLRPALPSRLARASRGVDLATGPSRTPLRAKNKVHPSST
polycystin‐1, full length (pCI‐PC1‐Flag): residues 24-4303 of P98161
HA‐(3048‐3703) fragment of polycystin‐1: residues 3048-3703 of P98161
HA‐(3703‐4303) fragment of polycystin‐1: residues 3703-4303 of P98161
UniProt Q9Y4D1: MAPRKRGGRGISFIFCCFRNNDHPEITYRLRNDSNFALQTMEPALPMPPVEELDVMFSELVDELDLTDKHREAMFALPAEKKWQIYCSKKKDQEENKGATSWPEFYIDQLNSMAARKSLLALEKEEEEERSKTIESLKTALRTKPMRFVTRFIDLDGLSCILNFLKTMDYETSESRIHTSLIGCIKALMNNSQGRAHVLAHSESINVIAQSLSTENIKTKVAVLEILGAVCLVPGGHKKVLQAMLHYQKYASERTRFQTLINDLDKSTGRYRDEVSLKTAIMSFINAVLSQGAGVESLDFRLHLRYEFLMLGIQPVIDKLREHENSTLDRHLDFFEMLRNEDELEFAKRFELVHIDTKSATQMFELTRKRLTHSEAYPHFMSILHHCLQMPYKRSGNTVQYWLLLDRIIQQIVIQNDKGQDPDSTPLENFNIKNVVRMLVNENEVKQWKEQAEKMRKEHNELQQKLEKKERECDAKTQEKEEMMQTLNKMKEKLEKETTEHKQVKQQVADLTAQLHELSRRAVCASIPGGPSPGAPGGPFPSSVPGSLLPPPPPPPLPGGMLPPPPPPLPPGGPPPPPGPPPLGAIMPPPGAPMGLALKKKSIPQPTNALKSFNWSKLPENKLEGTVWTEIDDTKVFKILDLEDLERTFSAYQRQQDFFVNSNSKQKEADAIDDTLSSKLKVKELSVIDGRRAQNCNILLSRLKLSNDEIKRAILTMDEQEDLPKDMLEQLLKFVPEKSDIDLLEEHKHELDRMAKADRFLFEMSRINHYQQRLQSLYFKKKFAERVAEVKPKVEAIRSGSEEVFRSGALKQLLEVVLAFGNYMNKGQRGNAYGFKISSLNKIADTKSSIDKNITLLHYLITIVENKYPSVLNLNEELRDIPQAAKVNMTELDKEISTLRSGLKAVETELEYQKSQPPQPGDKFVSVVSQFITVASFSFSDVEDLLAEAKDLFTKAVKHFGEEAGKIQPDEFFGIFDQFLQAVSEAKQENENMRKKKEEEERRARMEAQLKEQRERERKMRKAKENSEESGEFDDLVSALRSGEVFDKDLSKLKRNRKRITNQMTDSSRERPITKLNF

Test [1] concerns the target polycystin‐1, full length (pCI‐PC1‐Flag) (human) (UniProt P98161). In words: co-IP; lysates of HEK‐293T cells overexpressing polycystin‐1, immunoprecipitated with anti‐polycystin‐1 and probed with anti‐Daam1; IP lysis buffer, antibody overnight at 4 °C, protein A/G agarose beads 2 h at room temperature.
The target of test [2] is HA‐(3703‐4303) fragment of polycystin‐1 (human) (UniProt P98161). In words: co-IP; HEK‐293T cells expressing HA‐ or FLAG‐tagged constructs; IP lysis buffer, antibody overnight at 4 °C, protein A/G agarose beads 2 h at room temperature; blots with anti‐FLAG and anti‐HA.
Test [3] deals with HA‐(3048‐3703) fragment of polycystin‐1 (human) (UniProt P98161). The description is as above.

These are yes or no findings as the source states them, for the method shown. In cells and extracts the contact can be indirect. Some binding calls cover weakened binding; strength is not graded here.

In the case of “disheveled‐associated activator of morphogenesis 1 (Daam1) (from UniProt Q9Y4D1 1-1078)”, the binding result was “binds” in test [1], “binds” in test [2] and “no binding” in test [3].
